Measurements as given in patent US20120156139A1, “ISOTOPICALLY LABELED NEUROCHEMICAL AGENTS AND USES THEROF FOR DIAGNOSING CONDITIONS AND DISORDERS” (priority 2009, published 2012).

Assay: 13C acquisition with deuterium decoupling / proton NOE and decoupling at 11.8 T
Type: physicochemical

In the case of `[2H]C([2H])(O)[13C]([2H])([2H])[N+](C)(C)C` [[1,1,2,2-D4,2-^13C]-choline], the “Enhancement of the carbon-13 signal at position 2 by deuterium decoupling” value (in water) is reported as 3 fold, the “Overall natural linewidth of the signal (split signal envelope) before deuterium decoupling” value (in water) is reported as “about 100 Hz” and the “Overall natural linewidth of the signal with deuterium decoupling” value (in water) is reported as “about 5 Hz”. The “Increase of signal-to-noise ratio of the 13C nucleus at position 2 by proton NOE and decoupling” value (proton irradiation prior to and during 13C acquisition) was “factor of two”.
